Reference: US7858322B2, “Method of determining inhibition of binding to TRPM7 protein” (NoNo, Inc., priority 2003, dated 2010)
Part of at least one peptide drawing is inferred or uncertain, most often the ends. Residues, ends and D or L forms follow the SMILES beside them. *: point of attachment. Biotin = O=C1N[C@H]2[C@H](CS[C@H]2CCCCC(=O)*)N1

Legend:
Mint 1 (d1, d2) = target: T1, Mint 1 (d1, d2) (Homo sapiens, UniProt Q02410, K730E); test: G3 assay, binding of biotinylated peptide to GST-PDZ fusion
T1 construct: made in house; host or cells: E. coli (DH5α, BL21 or JM109)
T1 sequence (Q02410 651-828 K730E): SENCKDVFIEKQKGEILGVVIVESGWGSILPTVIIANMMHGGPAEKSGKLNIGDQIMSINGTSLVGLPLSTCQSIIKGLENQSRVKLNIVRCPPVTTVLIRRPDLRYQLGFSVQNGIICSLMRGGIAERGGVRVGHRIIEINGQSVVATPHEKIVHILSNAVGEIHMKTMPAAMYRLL

RIM2 d1 = target: T2, RIM2 d1 (Homo sapiens, UniProt Q9UQ26); test: as above; details: G3 titration, RIM2 (177.4)
T2 construct: made in house; host or cells: E. coli (DH5α, BL21 or JM109)
T2 sequence (Q9UQ26 632-757): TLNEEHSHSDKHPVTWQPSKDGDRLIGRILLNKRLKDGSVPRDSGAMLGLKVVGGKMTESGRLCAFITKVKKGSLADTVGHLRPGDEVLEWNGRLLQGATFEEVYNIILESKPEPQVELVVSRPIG

CSCC[C@H](NC(=O)[C@H](CC(C)C)NC(=O)[C@H](CCCNC(=N)N)NC(=O)[C@@H](NC(=O)[C@H](CO)NC(=O)[C@H](CC(N)=O)NC(=O)[C@@H](NC(=O)[C@H](CO)NC(=O)[C@H](CCCNC(=N)N)NC(=O)[C@H](CCCNC(=N)N)NC(=O)[C@H](CCCNC(=N)N)NC(=O)[C@H](CCC(N)=O)NC(=O)[C@H](CCCNC(=N)N)NC(=O)[C@H](CCCNC(=N)N)NC(=O)[C@H](CCCCN)NC(=O)[C@H](CCCCN)NC(=O)[C@H](CCCNC(=N)N)NC(=O)CNC(=O)[C@H](Cc1ccc(O)cc1)NC(=O)CCCC[C@@H]1SC[C@@H]2NC(=O)N[C@@H]21)[C@@H](C)O)C(C)C)C(=O)N[C@@H](CC(C)C)C(=O)O [Tat-TRPM7 peptide] (Biotin-YGRKKRRQRRRSTNSVRLML-OH)
ODmax (450 nm) (Mint 1 (d1, d2); G3 titration, Mint 1 (d1, d2) (36.5a)): 1.90 | PDZ domains demonstrated to interact with Tat-TRPM7 peptide (Mint 1 (d1, d2); Mint 1 domains 1 and 2, 0.1 μM peptide, OD at least 2-fold over GST-only OD and/or ED50 of less than 0.17 μM): Mint 1 | ODmax (450 nm) (RIM2 d1): 2.10
